Laboratory results published in PubChem BioAssay AID1259415 (National Center for Advancing Translational Sciences (NCATS), 2018).
In all, about 410,000 compounds went through this assay and about 18,000 (4.4%) were called active. This list was built around the results that the source calls inconclusive (neither active nor inactive); the mix of calls is not that of the screen. No stated cut-off is given here; in the data, active means activity change below about -60%; inconclusive means no clear call, values can overlap the other calls; inactive means above about -39%. Some structures have more than one record in an assay (separate samples or runs), and their calls can disagree.
On the % scale 0 is the no-effect control and ±100 the full control effect.

Experiment: qHTS Assay for inhibitors of the human cytomegalovirus (HCMV)
Conditions: HFF cells, HCMV-luciferase reporter, 72 h; at 57.5 µM; hits give low values
In short: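 HFF cells seeded 16 h at 37C, treated with compounds, infected with luciferase-reporter HCMV at MOI 1 PFU/cell; luciferase read at 72 h post infection, normalized to buffer-only and Salinomycin controls.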
With `OC(CSc1ccccc1)CN1CCN(c2ccccc2)CC1` (stereo not drawn) the activity change, negative = inhibition was active: -102%.
With `CCN1CCN(c2cc(C)c3cc(NC(=S)NCCCN4CCc5ccccc5C4)ccc3n2)CC1` the activity change, negative = inhibition was inconclusive: -46.2%.
In the case of `Cc1cc(N2CCN(C)CC2)nc2ccc(NC(=S)N3CCCCC3)cc12`, the activity change, negative = inhibition is reported as inconclusive: -53.6%.
In the case of `OC(CN1CCNCC1)Cn1c2ccccc2c2ccccc21` (stereo not drawn), the activity change, negative = inhibition is reported as inconclusive: -55.9%.
With `CC(NC(=O)CSCc1ccccc1Br)c1ccccc1` (stereo not drawn) the activity change, negative = inhibition was inconclusive: -45.5%.
In the case of `Cc1c(P(=S)(c2ccccc2)c2ccccc2)[n+]2ccccc2n1C/C=C/c1ccccc1`, the activity change, negative = inhibition is reported as active: -99.1%.
In the case of `Nc1ccc(N2CCCCC2)c(S(=O)(=O)Nc2ccc(Cl)cc2)c1`, the activity change, negative = inhibition is reported as inconclusive: -55.6%.
In the case of `CCOC(=O)CC1COCCN1C(=O)c1cc(COc2ccc(F)c(F)c2)on1` (stereo not drawn), the activity change, negative = inhibition is reported as inactive: 53.9%.
For `COc1ccc(-n2nnnc2SCC(=O)Nc2c(C)n[nH]c2C)cc1`, the activity change, negative = inhibition was inconclusive: -43%.
With `CN(C)S(=O)(=O)c1cccc(NC(=O)Cc2ccc(Cl)cc2)c1` the activity change, negative = inhibition was inconclusive: -57.5%.
For `Cc1ccc(-c2cnc(C(O)c3ccc(C)cc3)[nH]2)cc1` (stereo not drawn), the activity change, negative = inhibition was inconclusive: -47.1%.
For `CCOc1ccc(NC(=O)C(C)n2c(=O)cc(C)c3c(C)nn(-c4ccccc4)c32)cc1` (stereo not drawn), the activity change, negative = inhibition was inactive: 1.51%.
For `Cc1sc2ncnc(N3CCC(C(=O)NNC(=O)c4ccc(Cl)cc4)CC3)c2c1C`, the activity change, negative = inhibition was inconclusive: -45.7%.
With `O=C(CSc1ncnc2sc3c(c12)CCCC3)NC1CCS(=O)(=O)C1` (stereo not drawn) the activity change, negative = inhibition was inactive: -10.9%.
With `CC1(C(=O)NC2CCN(Cc3ccccc3)CC2)CCN1Cc1ccc2ccccc2c1` (stereo not drawn) the activity change, negative = inhibition was active: -67.5%.
With `O=C(C[n+]1ccccc1)Nc1c(Cl)cc(Cl)cc1Cl` the activity change, negative = inhibition was inconclusive: -41.4%.
With `CC1CNCCN1S(=O)(=O)c1cccc2cnccc12` (stereo not drawn) the activity change, negative = inhibition was active: -64.3%.
With `COC(=O)CNC(c1ccccc1)c1cc(Br)ccc1NS(=O)(=O)c1ccc(C)cc1` (stereo not drawn) the activity change, negative = inhibition was inconclusive: -58.8%.
In the case of `COc1c(C)cc(C(=O)C2CCCN(C(=O)c3ccoc3)C2)cc1C` (stereo not drawn), the activity change, negative = inhibition is reported as active: -81.3%.
In the case of `CCN(CC)CCOCCOc1cc(C)c(Cl)c(C)c1`, the activity change, negative = inhibition is reported as active: -72.3%.
With `CCCn1c(-c2nonc2N)nc2ccccc21` the activity change, negative = inhibition was inconclusive: -59.4%.
In the case of `O=C(NCCc1ccccc1)c1ccc(CS(=O)(=O)c2ccc(Cl)cc2)o1`, the activity change, negative = inhibition is reported as active: -60.3%.
In the case of `CNC(=O)c1c(NC(=O)c2ccc(S(=O)(=O)N(C)c3ccccc3)cc2)sc2c1CCN(C(C)C)C2`, the activity change, negative = inhibition is reported as inactive: 0.465%.
In the case of `CCc1ccc(N(C(=O)c2csnn2)C(C(=O)NC2CCCC2)c2cccnc2)cc1` (stereo not drawn), the activity change, negative = inhibition is reported as inconclusive: -42.6%.
In the case of `COc1ccc(-c2nc(CN3CCC(c4ccccc4)CC3)c(C)o2)cc1OC`, the activity change, negative = inhibition is reported as active: -64.8%.
In the case of `CCOc1ccc(C(=O)Nc2cccc(-c3ccc4nncn4n3)c2)cc1`, the activity change, negative = inhibition is reported as inconclusive: -43.2%.
In the case of `COc1cccc(C(=O)N2CCC(n3nccc3NC(=O)CCOc3ccccc3)CC2)c1`, the activity change, negative = inhibition is reported as inconclusive: -45.4%.
With `C=CCNc1ncnc2c1[nH]c1ccc(C)cc12` the activity change, negative = inhibition was active: -68.1%.
With `CCOc1ccc(Cn2c3ccc(OC)cc3c3nc4ccccc4nc32)cc1` the activity change, negative = inhibition was inconclusive: -59%.
With `Cc1c(Br)ccc(NC(=O)c2ccccc2[N+](=O)[O-])c1C` the activity change, negative = inhibition was inconclusive: -44.6%.
In the case of `Fc1ccc(C2=Nn3c(Cc4ccccc4F)nnc3SC2)cc1`, the activity change, negative = inhibition is reported as inconclusive: -51%.
In the case of `O=C(/C=C/c1ccc2c(c1)OCO2)Nc1cc(S(=O)(=O)N2CCOCC2)ccc1N1CCOCC1`, the activity change, negative = inhibition is reported as inactive: -36%.
In the case of `c1ccc(C2OCCN2c2ccccc2)cc1` (stereo not drawn), the activity change, negative = inhibition is reported as inconclusive: -46.5%.
In the case of `CCn1c(SCC(=O)N2CCOCC2)nc2c(c1=O)SC(C)C2` (stereo not drawn), the activity change, negative = inhibition is reported as inconclusive: -43.8%.
In the case of `Cc1ccc(/C=C/c2onc(C)c2S(=O)(=O)N2CCC(C(=O)NCc3ccc(OC(C)C)cc3)CC2)cc1`, the activity change, negative = inhibition is reported as inactive: 6.84%.
For `O=C(NCc1cccnc1)c1csc([C@@H]2O[C@H](CO)[C@H](O)[C@H](O)[C@H]2O)n1`, the activity change, negative = inhibition was inactive: 18.9%.
With `COc1ccc(C(=O)Nc2ccc(NS(=O)(=O)c3ccccc3)cc2)cc1OC` the activity change, negative = inhibition was inconclusive: 0%.
With `Cc1ccccc1CN1CCNC(=O)C1CC(=O)NC1CCCCCCC1` (stereo not drawn) the activity change, negative = inhibition was inactive: 27.6%.
With `CCc1nnc(NC(=O)CCN(c2ccc(C)cc2)S(=O)(=O)c2ccccc2)s1` the activity change, negative = inhibition was inconclusive: -45.8%.
In the case of `Cc1ccc(/C=C/C(=O)O)cc1S(=O)(=O)N1CCc2ccccc2C1`, the activity change, negative = inhibition is reported as inconclusive: -43.7%.
For `Cc1cc(C)c(C#N)c(OCC2CCCO2)n1` (stereo not drawn), the activity change, negative = inhibition was inconclusive: -59.9%.
In the case of `COC(=O)c1c(NC(=O)c2ccc(S(=O)(=O)N(C)C3CCCCC3)cc2)sc2c1CCN(C)C2`, the activity change, negative = inhibition is reported as inconclusive: -41.4%.
With `Cc1cccc2sc(N(Cc3cccnc3)C(=O)C3COc4ccccc4O3)nc12` (stereo not drawn) the activity change, negative = inhibition was inconclusive: -42.2%.
In the case of `CCOc1cccc(CNc2ccc(O)cc2)c1OCc1ccc(Cl)cc1`, the activity change, negative = inhibition is reported as inconclusive: -51.7%.
With `NNC(=O)c1cc2nc(-c3cccs3)cc(C(F)(F)F)n2n1` the activity change, negative = inhibition was inconclusive: -59.4%.
For `CC(=O)Oc1ccccc1/C=C1\CCOC1=O`, the activity change, negative = inhibition was active: -62.4%.
With `O=C(COc1ccc(Cl)cc1Cl)Nc1ccccn1` the activity change, negative = inhibition was active: -79.6%.
For `Cn1c(-c2cccnc2)cc2cnc(Nc3ccc(OC(F)(F)F)cc3)cc21`, the activity change, negative = inhibition was active: -60%.
With `Cc1cc(NC(=O)c2cc(-c3cccs3)on2)no1` the activity change, negative = inhibition was inactive: 28.1%.
For `COc1cccc(OC)c1OCCOc1ccc(C(=O)c2ccccc2)cc1`, the activity change, negative = inhibition was active: -65.8%.
For `Cc1ccccc1NC(=O)C(=Cc1ccc(C(=O)O)cc1)C(=O)Nc1ccccc1C`, the activity change, negative = inhibition was active: -98.7%.
In the case of `Cc1nnc(NC(=O)CSc2nc(C3CCCCC3)nc3ccccc23)s1`, the activity change, negative = inhibition is reported as inconclusive: -51.1%.
For `O=c1cc(C(F)(F)F)[nH]c2ccccc12`, the activity change, negative = inhibition was inactive: 13.4%.
With `COc1ccc(N2CCN(C(CNC(=O)C(=O)NCc3ccncc3)c3ccco3)CC2)cc1` (stereo not drawn) the activity change, negative = inhibition was inconclusive: -46.1%.
For `CCOc1ccc(-c2cc(C(=O)O)c3ccccc3n2)c(OCC)c1`, the activity change, negative = inhibition was inconclusive: -42.4%.
With `Cc1nn(-c2cc(C)c3ccccc3n2)c2c1C1C(C2)C1(C)C` (stereo not drawn) the activity change, negative = inhibition was inconclusive: -55.9%.
In the case of `CC1CC(C)CN(C(=O)c2ccc(CSc3nc4ccncc4[nH]3)cc2)C1` (stereo not drawn), the activity change, negative = inhibition is reported as inconclusive: -48.1%.
In the case of `N#Cc1c(C(F)(F)F)cc(-c2cccs2)nc1SCc1ccccc1F`, the activity change, negative = inhibition is reported as inactive: -6.88%.
For `Fc1cccc(Nc2cc(-n3cccn3)ncn2)c1`, the activity change, negative = inhibition was inconclusive: -46.3%.
With `CN(CC(=O)NCCc1ccc(S(N)(=O)=O)cc1)Cc1ccc(Cl)cc1Cl` the activity change, negative = inhibition was active: -86.3%.
For `CC(C)=CCC/C(C)=C/COc1c2occc2cc2ccc(=O)oc12`, the activity change, negative = inhibition was inconclusive: -48%.
For `CN(C)c1cc[n+](CC(=O)N2c3ccccc3Sc3ccccc32)cc1`, the activity change, negative = inhibition was active: -83.9%.
In the case of `Cc1ccc(NC(=O)Cn2c(=O)n(CCCCC(=O)NCc3ccc4c(c3)OCO4)c(=O)c3ccccc32)cc1`, the activity change, negative = inhibition is reported as inactive: -23.1%.
For `CCCC(C(=O)NCCC(C)C)N(Cc1ccc(OC)cc1)C(=O)c1snc(C(N)=O)c1N` (stereo not drawn), the activity change, negative = inhibition was inconclusive: -59.1%.
For `CC1CCCC(C)N1CCCNC(=O)C1CCCN(c2ncnc3c2nc2n3CCCCC2)C1` (stereo not drawn), the activity change, negative = inhibition was inactive: 12%.
In the case of `COC(=O)c1cc2sccc2n1CC(=O)Nc1cc(Cl)ccc1OC`, the activity change, negative = inhibition is reported as inconclusive: -51.6%.
With `COc1ccc(S(=O)(=O)Nc2cccc(C(C)=O)c2)cc1Br` the activity change, negative = inhibition was inactive: 10.5%.
In the case of `Cc1ccc(CNC(=O)CC2Sc3ccccc3NC2=O)cc1` (stereo not drawn), the activity change, negative = inhibition is reported as inconclusive: -45.9%.
In the case of `Cc1ccccc1C(=O)N1CCC(C(=O)NN2C(=O)NC3(CCC(C)CC3)C2=O)CC1` (stereo not drawn), the activity change, negative = inhibition is reported as inactive: -27.2%.
For `CC(C)c1ccc(C(C)NCCS(=O)(=O)c2ccc(Cl)cc2)cc1` (stereo not drawn), the activity change, negative = inhibition was inconclusive: -40.7%.
With `COC1CCCCC1Nc1ccc(C)c(C)c1` (stereo not drawn) the activity change, negative = inhibition was inactive: -15.9%.
For `COc1ccccc1NS(=O)(=O)c1cc(NC(=O)c2[nH]c(C)c(C(C)=O)c2C)ccc1N1CCOCC1`, the activity change, negative = inhibition was active: -90.1%.
With `O=C(Nc1ccc2ccccc2c1)C(Nc1ccccc1)c1ccccc1F` (stereo not drawn) the activity change, negative = inhibition was inconclusive: -46.8%.
For `Cc1ccc(NC(=O)CN(C)CC(=O)Nc2ccccc2Oc2ccccc2)cc1`, the activity change, negative = inhibition was inactive: 28.2%.
In the case of `CC(NS(=O)(=O)c1ccc2[nH]c(=O)[nH]c2c1)c1ccc(F)cc1` (stereo not drawn), the activity change, negative = inhibition is reported as inactive: 21%.
For `CN(CC1CCCN(CCc2ccccc2F)C1)C(=O)c1cc2ccccc2o1` (stereo not drawn), the activity change, negative = inhibition was inconclusive: -40.4%.
With `O=C1C(=O)N(CCN2CCOCC2)C(c2cccc(Cl)c2)/C1=C(\O)c1ccc2c(c1)OCCO2` (stereo not drawn) the activity change, negative = inhibition was inconclusive: -42%.
With `CC(C)(C)C(=O)Nc1cccc(-c2nnc(-c3cccc(NC(=O)C(C)(C)C)c3)o2)c1` the activity change, negative = inhibition was inconclusive: -41.2%.
For `Cc1ccc(C(C)C)c(OCC(=O)NNC(=O)Cn2[nH]c(=O)c3ccccc3c2=O)c1`, the activity change, negative = inhibition was inactive: 17.5%.
With `CCn1c(/C=C/c2ccccc2F)nc2ccccc2c1=O` the activity change, negative = inhibition was inconclusive: -43.8%.
With `COc1ccccc1N1CC(C(=O)Nc2nnc(SCC(=O)NC(C)C)s2)CC1=O` (stereo not drawn) the activity change, negative = inhibition was inactive: 45.2%.
In the case of `CC(=O)c1cccc(CN2CCCC(C(=O)c3ccc4c(c3)OCO4)C2)c1` (stereo not drawn), the activity change, negative = inhibition is reported as inconclusive: -46%.
In the case of `COC(=O)Cc1c(O)ccn(CCc2c[nH]c3ccccc23)c1=O`, the activity change, negative = inhibition is reported as inconclusive: -44.2%.
In the case of `CCP(=O)(CC)C(C)(C)CP(=O)(c1ccccc1)c1ccccc1`, the activity change, negative = inhibition is reported as inconclusive: -54.7%.
In the case of `CCOC(=O)CC(NC(=O)c1ccc(C)cc1)c1ccc(OC)cc1` (stereo not drawn), the activity change, negative = inhibition is reported as inactive: 27.2%.
For `O=C(OCc1c(F)cccc1Cl)c1cnc(Cl)c(Cl)c1`, the activity change, negative = inhibition was inactive: -31.8%.
For `CC(C)COCc1ccc(O)c2ncccc12`, the activity change, negative = inhibition was inconclusive: -55.6%.
For `CCOc1ccccc1CNC(=O)c1oc2ccc3c(c2c1C)C(=O)CC(C)(C)O3`, the activity change, negative = inhibition was inactive: 4.12%.
